Where two headings read alike, the source gives them in different places. No constants are given. Whether binding was seen depends on the method and setting. In cells and extracts the contact can be indirect. Some results given as binding are weak or reduced against the parent protein; the word gives no strength. For part of these data: Where a sequence is shown, tags or fusion partners need not be part of it.
Tests used:
[1] = molecular target: POPDC1-Myc (Popeye domain-containing protein 1, Myc-tagged) (mouse) (UniProt Q9ES83); experiment: co-IP
[2] = molecular target: POPDC1-Myc (Popeye domain-containing protein 1, Myc-tagged) (mouse) (UniProt Q9ES83); experiment: co-IP; remark: listed apart in the source
[3] = molecular target: POPDC1-Myc (Popeye domain-containing protein 1, Myc-tagged) (mouse) (UniProt Q9ES83); experiment: co-IP; remark: listed apart in the source
POPDC2-Myc (mouse) = molecular target: T1, POPDC2-Myc (mouse) (UniProt Q9ES82); experiment: co-IP
T1 sequence: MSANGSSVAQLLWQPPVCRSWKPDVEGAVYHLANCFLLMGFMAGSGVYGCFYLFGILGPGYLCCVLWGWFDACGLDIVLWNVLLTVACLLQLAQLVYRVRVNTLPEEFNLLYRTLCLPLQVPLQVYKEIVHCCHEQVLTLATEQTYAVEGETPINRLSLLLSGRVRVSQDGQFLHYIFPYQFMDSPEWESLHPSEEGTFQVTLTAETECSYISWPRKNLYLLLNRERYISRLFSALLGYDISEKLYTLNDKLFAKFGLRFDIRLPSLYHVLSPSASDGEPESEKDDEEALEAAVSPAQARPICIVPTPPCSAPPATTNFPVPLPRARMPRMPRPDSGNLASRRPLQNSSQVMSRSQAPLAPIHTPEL

[4] = molecular target: T2, AC9-VN / AC9-VC (AC9 with a half of Venus for BiFC), O60503; experiment: split reporter; settings: remark: other sources report otherwise
T2 chain: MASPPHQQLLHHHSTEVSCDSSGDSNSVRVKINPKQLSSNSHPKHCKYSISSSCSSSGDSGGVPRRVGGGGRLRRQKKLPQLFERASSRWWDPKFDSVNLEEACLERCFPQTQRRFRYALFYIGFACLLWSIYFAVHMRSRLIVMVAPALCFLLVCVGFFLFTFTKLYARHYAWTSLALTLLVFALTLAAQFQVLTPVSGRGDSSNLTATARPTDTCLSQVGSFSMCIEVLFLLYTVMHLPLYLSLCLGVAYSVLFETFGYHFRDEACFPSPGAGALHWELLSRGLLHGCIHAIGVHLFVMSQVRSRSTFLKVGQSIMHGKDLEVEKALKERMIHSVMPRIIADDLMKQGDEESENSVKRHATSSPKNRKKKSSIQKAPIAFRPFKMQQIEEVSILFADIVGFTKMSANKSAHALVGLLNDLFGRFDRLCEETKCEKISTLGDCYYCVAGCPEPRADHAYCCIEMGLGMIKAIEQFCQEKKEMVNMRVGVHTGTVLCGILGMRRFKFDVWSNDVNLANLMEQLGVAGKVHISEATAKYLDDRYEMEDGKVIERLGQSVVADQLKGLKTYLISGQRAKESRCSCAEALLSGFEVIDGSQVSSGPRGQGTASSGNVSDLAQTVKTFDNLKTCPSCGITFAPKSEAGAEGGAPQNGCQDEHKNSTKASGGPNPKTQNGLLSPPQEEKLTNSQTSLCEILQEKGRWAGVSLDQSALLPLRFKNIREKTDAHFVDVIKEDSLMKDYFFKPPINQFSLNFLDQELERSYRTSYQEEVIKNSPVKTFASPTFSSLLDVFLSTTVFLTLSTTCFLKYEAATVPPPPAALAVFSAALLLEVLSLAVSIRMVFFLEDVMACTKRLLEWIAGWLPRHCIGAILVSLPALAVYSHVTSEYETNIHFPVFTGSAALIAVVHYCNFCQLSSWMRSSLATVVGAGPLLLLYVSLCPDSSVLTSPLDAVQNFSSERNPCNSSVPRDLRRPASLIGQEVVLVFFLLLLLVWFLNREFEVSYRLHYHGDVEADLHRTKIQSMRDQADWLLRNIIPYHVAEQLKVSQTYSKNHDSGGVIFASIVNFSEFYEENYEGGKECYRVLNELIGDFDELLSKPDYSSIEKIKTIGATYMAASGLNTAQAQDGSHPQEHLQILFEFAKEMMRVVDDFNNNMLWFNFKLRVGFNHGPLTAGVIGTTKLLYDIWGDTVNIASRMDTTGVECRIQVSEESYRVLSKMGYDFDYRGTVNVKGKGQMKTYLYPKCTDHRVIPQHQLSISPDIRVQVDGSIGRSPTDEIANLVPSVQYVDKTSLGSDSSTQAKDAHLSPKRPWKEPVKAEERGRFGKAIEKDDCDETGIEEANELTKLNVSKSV

[5] = molecular target: T3, POPDC1-VN / POPDC1-VC (mouse POPDC1 with a half of Venus for BiFC) (mouse) (UniProt Q9ES83); experiment: split reporter
T3 sequence: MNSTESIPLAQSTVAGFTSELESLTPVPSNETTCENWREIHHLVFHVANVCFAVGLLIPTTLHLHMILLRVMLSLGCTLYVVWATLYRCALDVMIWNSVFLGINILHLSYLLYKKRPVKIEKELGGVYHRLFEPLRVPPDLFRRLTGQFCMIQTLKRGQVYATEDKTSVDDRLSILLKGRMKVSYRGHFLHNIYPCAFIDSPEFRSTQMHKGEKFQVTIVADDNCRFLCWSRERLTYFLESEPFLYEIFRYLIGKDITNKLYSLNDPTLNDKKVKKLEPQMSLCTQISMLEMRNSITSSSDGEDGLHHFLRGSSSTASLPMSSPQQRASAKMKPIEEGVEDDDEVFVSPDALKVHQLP

[6] = molecular target: T4, POPDC3-VN / POPDC3-VC (mouse POPDC3 with a half of Venus for BiFC) (mouse) (UniProt Q9ES81); experiment: split reporter
T4 sequence: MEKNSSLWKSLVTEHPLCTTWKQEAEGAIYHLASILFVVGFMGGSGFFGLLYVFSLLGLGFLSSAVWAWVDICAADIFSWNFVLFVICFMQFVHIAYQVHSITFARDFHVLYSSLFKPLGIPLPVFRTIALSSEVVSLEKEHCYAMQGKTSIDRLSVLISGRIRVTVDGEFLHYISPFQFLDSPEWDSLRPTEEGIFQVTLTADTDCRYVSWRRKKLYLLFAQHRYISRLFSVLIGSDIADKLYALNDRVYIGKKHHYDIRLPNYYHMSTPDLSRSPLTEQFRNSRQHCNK

[7] = molecular target: T5, POPDC2-VN / POPDC2-VC (mouse POPDC2 with a half of Venus for BiFC) (mouse) (UniProt Q9ES82); experiment: split reporter
T5 sequence: T1 sequence

[8] = molecular target: T3, POPDC1-VN / POPDC1-VC (mouse POPDC1 with a half of Venus for BiFC) (mouse); experiment: split reporter; remark: listed apart in the source

Measured: binding

B1: Flag-tagged AC9 (adenylyl cyclase type 9) (enzyme, UniProt O60503 1-1353)
chain: T2 chain
binds: [1] | [2] | [3] | POPDC2-Myc (mouse)

B2: AC9-VN / AC9-VC (AC9 with a half of Venus for BiFC), O60503 1-1353 (enzyme)
chain: T2 chain
binds: [4]

B3: AC9-VN / AC9-VC (AC9 with a half of Venus for BiFC) (enzyme, UniProt O60503 1-1353)
chain: T2 chain
binds: [5] | [6] | [7] | [8]
